# In PMC7819943, “Rice protein-binding microarrays: a tool to detect cis-acting elements near promoter regions in rice”:
# Some of the results follow.
# Molecular target: T1, OsSMF1 (Oryza sativa, UniProt Q6ZLB0 1-436)
# T1 sequence: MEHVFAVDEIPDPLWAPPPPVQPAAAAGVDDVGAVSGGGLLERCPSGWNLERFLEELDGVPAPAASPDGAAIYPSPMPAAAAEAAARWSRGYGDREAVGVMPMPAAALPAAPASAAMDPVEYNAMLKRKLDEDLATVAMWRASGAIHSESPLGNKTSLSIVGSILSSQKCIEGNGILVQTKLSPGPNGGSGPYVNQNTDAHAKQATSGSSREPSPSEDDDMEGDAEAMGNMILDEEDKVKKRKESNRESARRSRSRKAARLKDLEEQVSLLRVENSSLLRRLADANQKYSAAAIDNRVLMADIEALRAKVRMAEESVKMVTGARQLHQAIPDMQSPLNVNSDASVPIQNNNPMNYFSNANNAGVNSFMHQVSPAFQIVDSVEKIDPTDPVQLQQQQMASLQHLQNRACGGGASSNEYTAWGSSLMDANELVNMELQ
# Test: protein-binding microarray (RPBM); PBS, 2% BSA, 51.3 ng/ul salmon testes DNA, 50 uM zinc acetate, 200 nM TF, 25 C, 1 h; high values mean tight binding
# Details: protein: recombinant; tags: N-terminal polyhistidine and DsRed monomer fusion (pET32a); chain copies: 2; label: CyDye5-dUTP incorporated in the synthesized complementary strand; 3' TTTTT single-stranded linker to array surface; dsDNA, one strand shown
# Procedure, shortened: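 Ni–NTA purification followed expression in E. coli BL21-CodonPlus of transcription factors fused N-terminally to a polyhistidine tag and DsRed. At 200 nM in PBS with 2% BSA, salmon testes DNA and 50 µM zinc acetate, the protein was incubated for 1 h at 25 °C with a custom Agilent array that had been primer-extended with Cy5-dUTP and blocked with 2% BSA. After washing, the array was read on an Axon 4000B scanner. The binding signal is per-feature fluorescence intensity in arbitrary units.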
row,Sequence,binding signal
1,TCGAACCCGCTCCAAGTCCTGTACCTCGCCGTACGTCAGCCGGAGTCACCTAGTGCAG,4420 fluorescence intensity (a.u.)
2,TATAAACAACTTTTCTCGTCATGACTAACTTCCCTTTCGGCGGAGTCACCTAGTGCAG,4020 fluorescence intensity (a.u.)
3,CTTCAGCCAAGTCACAGCGGCCTCGGCTTCTTGCAGCTCGCGGAGTCACCTAGTGCAG,3350 fluorescence intensity (a.u.)
4,GGTTGGATAGCGCTTGTGGTGTGGGCAGGGTTTACACAGACGGAGTCACCTAGTGCAG,3150 fluorescence intensity (a.u.)
5,CGACAGCAACCACGGGACGATTTCATCATCGTGTGTGCACCGGAGTCACCTAGTGCAG,3840 fluorescence intensity (a.u.)
6,AACTACACACAAAGCCGAGCCAAAGTCTCTAGGTCAAAGTCGGAGTCACCTAGTGCAG,20600 fluorescence intensity (a.u.)
7,CGCGGCACGGGGAGACGACACGTCGGATGGTTGGCAGGAGCGGAGTCACCTAGTGCAG,16400 fluorescence intensity (a.u.)
8,TGTTTTGTTTCCCTCAGCGTATGTAATCATGACTATTACCCGGAGTCACCTAGTGCAG,3420 fluorescence intensity (a.u.)
9,TCATAAAAGGCTGTGTTTAAATCCAAAATTTGGATCCAAACGGAGTCACCTAGTGCAG,3270 fluorescence intensity (a.u.)
10,CCCCGTTCGATCTGACAATACGCCATGTCACCTAACAAGACGGAGTCACCTAGTGCAG,4630 fluorescence intensity (a.u.)
11,CGGTTTGACCAGCCACATGCTGCTGATTAGACCAGCCCTACGGAGTCACCTAGTGCAG,3290 fluorescence intensity (a.u.)
12,AGCTTCATGCATGGTAAGCCGCATGAGGATGGTGTAGTATCGGAGTCACCTAGTGCAG,3360 fluorescence intensity (a.u.)
13,GTCGCCAAGGAATCATCCATGACGTCAGTCGCCGAGCCGTCGGAGTCACCTAGTGCAG,17300 fluorescence intensity (a.u.)
14,GCTAGTATTTTGGTATGTCATCCGTGTATCACAGTAGGTTCGGAGTCACCTAGTGCAG,4610 fluorescence intensity (a.u.)
15,CGCAAGAAACATGACTGTTCTTGTGTAGTCTACTGTAAATCGGAGTCACCTAGTGCAG,3560 fluorescence intensity (a.u.)
16,ACCCTCCTGGCCTCCTCGGCGCCACCCGTTGCCCGCCGCGCGGAGTCACCTAGTGCAG,3160 fluorescence intensity (a.u.)
17,CAACATAGTATCGGATGTGACACATCCTAATACTATAAATCGGAGTCACCTAGTGCAG,3170 fluorescence intensity (a.u.)
18,ACTCGTGGAGCCGGTGATGACGTGCCCAAGCTAGAGACAGCGGAGTCACCTAGTGCAG,7230 fluorescence intensity (a.u.)
19,GCGCTGACGTGTCGCTATCCTACTGGAACACACCACGTCACGGAGTCACCTAGTGCAG,46500 fluorescence intensity (a.u.)
20,TAATCTAGTATCAGATATGACACATCCTAGTATTACGAATCGGAGTCACCTAGTGCAG,5560 fluorescence intensity (a.u.)
21,GGGGTGACATAACTGAACAAGTTGGAGGATCTAAACGGGTCGGAGTCACCTAGTGCAG,3180 fluorescence intensity (a.u.)

row,Sequence,binding signal
1,CATCCCCAAACTCCGCCGCCGCCGCCGTCACCGCCGCTCGCGGAGTCACCTAGTGCAG,3700 fluorescence intensity (a.u.)
2,GCGCTAGTCCGTATGAACATGACGTGAACATAATCTCGACCGGAGTCACCTAGTGCAG,5120 fluorescence intensity (a.u.)
3,TTTCATGCATGTGTCAATTTATTTGATAACCATAGTCCACCGGAGTCACCTAGTGCAG,33200 fluorescence intensity (a.u.)
4,CAGGAGGGGTGGGTTGTTGTTCGGTGGTGTGGACCCGTGCCGGAGTCACCTAGTGCAG,4020 fluorescence intensity (a.u.)
5,GAGGCAGAGGGGTGGCAAACAAAACCCAACGCCATCGCAGCGGAGTCACCTAGTGCAG,3360 fluorescence intensity (a.u.)
6,TTATATTATATAAAGTTACTTCTAAGTGTGACACGTAACACGGAGTCACCTAGTGCAG,6550 fluorescence intensity (a.u.)
7,TCCAACACCTTCCTTGATCCCATAACATTTGCTTCTTTCTCGGAGTCACCTAGTGCAG,25900 fluorescence intensity (a.u.)
8,AACGAACGTGATGCCTTCTTTTCGAGCTGTTTTAATAATACGGAGTCACCTAGTGCAG,15100 fluorescence intensity (a.u.)
9,CACGGTTCGAGGCGGAGAAGTTTTGCACGTCCCTTCATCCCGGAGTCACCTAGTGCAG,3250 fluorescence intensity (a.u.)
10,CAGGCTCTGACGTAAGATATATGTAACTCAGGAGAGACATCGGAGTCACCTAGTGCAG,6090 fluorescence intensity (a.u.)
11,ACGAGGTCAAAGCTGCCACATCAGAAAACAACCTCCCGAACGGAGTCACCTAGTGCAG,4540 fluorescence intensity (a.u.)
12,TGCTATAGTAAACATTTGCTAATGACGTATTAATTAAGCTCGGAGTCACCTAGTGCAG,6060 fluorescence intensity (a.u.)
13,ATCTAGTAACTATTTGCAATGTTTGCTACTAGATTCTAAGCGGAGTCACCTAGTGCAG,31400 fluorescence intensity (a.u.)
14,TCCACCCTTGCCGATGACGGCAACTCTCCCTCCGCTGTCCCGGAGTCACCTAGTGCAG,4110 fluorescence intensity (a.u.)
15,AAAACACAGGAATGGTCGTTTGATTGGAGCGCAGGAGAAACGGAGTCACCTAGTGCAG,64900 fluorescence intensity (a.u.)
16,GTATAGGGGAGAGGGTGGGCGGGTGATCACTGGGTGGGTGCGGAGTCACCTAGTGCAG,5920 fluorescence intensity (a.u.)
17,ATGGACCTATCACTACTCTATATGTGATCAGCCATCTAAACGGAGTCACCTAGTGCAG,22400 fluorescence intensity (a.u.)
18,CATCTGACGTCTTTGCTCCACCTGGTTCTTAATGACATTTCGGAGTCACCTAGTGCAG,4070 fluorescence intensity (a.u.)
19,GCAAACACCGGTAGTTCTCTCTGCCTCGCCTATAAATGTGCGGAGTCACCTAGTGCAG,3640 fluorescence intensity (a.u.)
20,ACCGTGCACGGTTGGTCCATGCGATGGCTGCGAGGCACAGCGGAGTCACCTAGTGCAG,19000 fluorescence intensity (a.u.)
21,CATGAACAGGGTGATTAAGTGATTATTATTATTAATTAATCGGAGTCACCTAGTGCAG,3380 fluorescence intensity (a.u.)

# Part of the list above, reformatted:
row	Sequence	binding signal
7	TCCAACACCTTCCTTGATCCCATAACATTTGCTTCTTTCTCGGAGTCACCTAGTGCAG	25900 fluorescence intensity (a.u.)
8	AACGAACGTGATGCCTTCTTTTCGAGCTGTTTTAATAATACGGAGTCACCTAGTGCAG	15100 fluorescence intensity (a.u.)
